Experiment [1] concerns the target CTI1-nYFP (Arabidopsis thaliana) (UniProt Q9C7S3). Put plainly: split reporter; BiFC with split YFP in Arabidopsis protoplasts, confocal microscopy.
Experiment [2] has as its target α-CT-cLUC (Arabidopsis thaliana). Briefly: split reporter; split-luciferase in agroinfiltrated Nicotiana benthamiana leaves; 4 d continuous light, or 2 d light then 2 d dark, then 24 h recovery in the light; CCD imaging with D-luciferin.

These are yes or no findings as the source states them, for the method shown. Binding seen in cells or lysates may run through a third protein. For part of these data: Binding calls can cover weak binding; strength is not graded here. For part of these data: Where a sequence is shown, tags or fusion partners need not be part of it.

B1: PTST2 (BiFC) (protein, UniProt Q9LFY0 72-532)
chain: CNGVSRMCNKRNLGWDSEGSKDLETEILEFMKNSEKPGMFPSKKDLIRSGRFDLVERIVNQGGWLSMGWDLDEQEEKVRVNENVTPQDLHIEKQLPNCNSPEMDKTLNHGDLDLSSNLSSSTEQVESRNDSGIEGILTRLEKERNLSLGISVRENGKSNGAMHDISPNGSVPWSSRIVTASEIQEVDGSRGSGEYAQSRYQGAKSVSGKPGLSDSPTSETWRTWSMRRAGFTDEDFEAAEISSSGLTGVKKDDTKKDSGDSMNGKDRIASSSEDVNKTHIKHRLQQLQSELSSVLHSLRSPPDKVVTSKDSETTAGNLENLSDDWEYKENEIIHAQNKLRSTRAKLAVLEGKMAMAIIDAQRIVREKQRRIDHASRALRLLRTASIVWPNSASEVLLTGSFDGWSTQRKMKKAENGVFSLSLKLYPGKYEIKFIVDGQWKVDPLRPIVTSGGYENNLLIIS
As for B1, the binding entry in experiment [1] is “no binding”.

B2: CTI1-nLUC (protein, UniProt Q9C7S3 1-168)
chain: MASLSSTSLSLPKNSHQLHPSSGFSLNPNARCVSVSFGLNHSNKLHISAPRTKRILTIQSAYRDDDGSGSTGLFVGGFILGGLIVGALGCVYAPQISKAIAGADRKDLMRKLPKFIYDEEKALEKTRKVLAEKIAQLNSAIDDVSSQLKSEDTPNGAALSTDEIEATA
Take B2: in experiment [2], the binding result is listed as “binds”.

B3: BCCP2 (BiFC) (protein, UniProt Q9LLC1 88-255)
chain: EFMAKVSGLLKLVDSKDIVELELKQLDCEIVIRKKEALQQAVPPAPVYHSMPPVMADFSMPPAQPVALPPSPTPTSTPATAKPTSAPSSSHPPLKSPMAGTFYRSPGPGEPPFVKVGDKVQKGQIVCIIEAMKLMNEIEAEKSGTIMELLAEDGKPVSVDTPLFVIAP
As to B3, in experiment [1], the binding result is recorded as “no binding”.

These data come from paper PMC7712654.
